Laboratory results taken from US12448425B2, “Therapeutic peptides” (Board of Regents, The University of Texas System, priority 2019, dated 2025).
Not every detail of the peptide structures is certain; ends, links or a residue may be inferred. Ends that are not written are not given here.

How the values were obtained:
RF24 endothelial cells = assay: Endothelial cell migration (scratch) assay; format: cell-based; conditions: 50 μM
EphB4 and Crk1 = assay: Phosphorylation of EphB4 and Crk1 in A2780cp20 cells (IP/immunoblot); format: cell-based, human
Procedure: FIGS. 2A-C: BIDEN-AP acts as an EphB4 agonist. (FIG. 2A) BIDEN-AP induced phosphorylation of EphB4 and the associated […] (Crk1). After 16 h serum starvation, A2780cp20 cells were incubated with EFNB2-Fc (20 nM), TNYL-RAW (SEQ ID NO: 12) (50 μM), or BIDEN-AP (50 μM) for 30 min or 2 h. The uncropped blots were available at Supplemental FIG. 11. (FIG. 2B) BIDEN-AP inhibited A2780cp20 cell invasion compared to untreated control (CTL). A modified Boyden transwell chamber coated with human defined matrigel was used. Experiments were performed in triplicate. Data are presented as mean±SD. ***p<0.001. (FIG. 2C) Alexa647-BIDEN-AP was internalized via receptor-mediated endocytosis. A2780cp20 cells were incubated at 37° C. with Alexa647-BIDEN-AP (0.05 μM), Alexa647-TNYL-RAW (SEQ ID NO: 12) (0.05 μM), or Alexa647-BIDEN-AP (0.05 μM) plus unlabeled TNYL-RAW (SEQ ID NO: 12) (5 μM, blocking). Alexa647-BIDEN-AP but not Alexa647-TNYL-RAW (SEQ ID NO: 12) was internalized into the A2780cp20 cells.
Total protein lysates were harvested and subjected to Nupage-SDS separation followed by immunoblotting. […] CTL, untreated control. The uncropped blots were available at Supplemental FIG. 11.
Immunoblotting, immunoprecipitation, and co-immunoprecipitation. […] The protein concentrations were determined by using a BCA Protein Assay Reagent kit (Pierce Biotechnology, Rockford, IL). […]

Q: Which results are given for “TNYLFSPNGPIARAW-NH2 (C-terminus assumed) [TNYL-RAW, reference compound]”?
A: endothelial cell migration vs untreated controls (RF24 endothelial cells): but not; phosphorylation of EphB4 and Crk1 in vitro (EphB4 and Crk1): but not
